Results reported in PubChem BioAssay AID651784 (National Center for Advancing Translational Sciences (NCATS), 2012).
This list was built around the results that the source calls inconclusive (neither active nor inactive); the mix of calls is not that of the screen. Where the call is inconclusive, the potency comes from a doubtful curve fit. Activity calls are given as the source filed them. Calls follow the shape of the dose curve; as a rule, active = well fitted inhibition curve with a large enough effect; inconclusive = small, poorly fitted or top-dose-only effect; inactive = no such curve, though single readings can be large or run the other way.

Experiment: Acumen qHTS Assay for Inhibitors of the mTORC1 Signaling Pathway in MEF (Tsc2-/-, p53-/-) Cells: Hit Validation; also: nearly all actives have a fitted effect of over 65% in size
Settings: Acumen imaging
Description: The mammalian target of rapamycin (mTOR) is an intracellular serine/threonine kinase Aberrant regulation of mTOR signaling plays a causative role in a number of human diseases, including cancer, benign tumors such as lymphangioleiomyomatosis (LAM) and Tuberous Sclerosis Complex (TSC), and metabolic diseases such as diabetes and obesity. This project aims to identify inhibitors of ribosomal protein S6 (rpS6) phosphorylation. The phosphorylation of rpS6 is a key event downstream of mTOR activation. The assay uses a phospho-specific antibody of phospho-rpS6 to detect inhibitors of mTOR activation. Mutations in the Tsc1 and Tsc2 genes are the underlying genetic lesions responsible for TSC, causing constitutive activation of the mTORC1 pathway and leading to profound effects on cell metabolism. Aberrant metabolism in cancer has recently received significant attention as a target to develop therapeutic agents in the treatment of cancer.1 As Tsc2-/- cells have lost the ability to respond to energy and growth factor deprivation, these cells are unable to properly down regulate cellular biosynthetic processes in response to metabolic stress, and are thus extremely sensitive to glucose deprivation-induced death.2 A central goal of this project is to explore the unique cell survival and metabolic properties of cells with Tsc1 or Tsc2 by screening for compounds that selectively target the Tsc2-/- MEFs by screening both Tsc2-/- and WT MEF cell lines. We hope to better understand these aspects of TSC physiology in order to exploit them for therapeutic benefit.
NIH Molecular Libraries Probe Production Centers Network [MLPCN]
NIH Chemical Genomics Center [NCGC]
Assay Submitter (PI): Blenis, John; Harvard University
For quantitative high throughput analysis of mTORC1 signaling, we developed a cell-based assay for immuno-fluorescence based detection of rpS6 phosphorylation on the Acumen Explorer that will be used a platform for the primary small molecule screen. Mouse embryonic fibroblasts (MEFs) are cultured in 1536-well plates using DMEM + 10% FBS. Twenty-four hrs after plating, test compounds (solubilized in DMSO) are delivered and incubated with the cells for 24 hrs at 37 degree Celsius. Following the incubation, media with compound is aspirated and the cells are fixed in 4% paraformaldehyde (PFA) containing PBS + 0.2% TX-100. Next, PFA is aspirated, cells are washed two times with PBS plus 0.2% TX-100 and the cells are blocked for 1 hr at room temperature (blocking buffer: LiCOR Blocking Buffer plus 0.2% TX-100). This is followed by aspiration and staining with Alexa-488 conjugated-phospho-rpS6 Ser235/236 antibody for 2 hours at room temperature (Cell Signaling Technology # 4803, 1:50 dilution in blocking buffer). Cells are washed two times with PBS plus 0.2% TX-100, and stained with 10 uM propidium iodide (PI) for 20-25 minutes for cell number measurement (1:500 dilution of Hoescht staining is also added for IN Cell imaging). The plates are scanned on the Acumen Explorer laser scanning instrument (TTP Labtech) using the 488nm laser for simultaneous excitation of the Alexa-488 and PI. […] Fluorescence emission from the PI stain is selected using a 575-640 nm band pass filter. The normalized phospho-S6 staining is calculated as the ratio of the integrated Alexa 488 intensity divided by the integrated PI intensity for the single concentration rapamycin control (7.5 nM) and DMSO columns. […] Inhibition of the pathway is defined based on the normalized phospho-S6 intensity in rapamycin treated cells. Active cells are defined as those with a normalized phospho-S6 staining above this threshold, and each treatment is reported as the % positive cells in the well, where thresholds are defined by selecting wells with the highest and lowest signal and differentiating between the % non-active and % active populations. In addition to the pathway specific phospho-S6 endpoint, the number of PI stained cells from the Acumen is recorded as a measure of cell viability. […]
Potency is read from the fitted curve at half-maximal effect.

| Structure (SMILES) | Potency |
| --- | --- |
| O=S(=O)(NCC(c1ccco1)S(=O)(=O)c1cccs1)c1ccc(Cl)cc1 (stereo not given) | inconclusive: 26.1 µM [inhibitor, single point] |
| CCCN1C(=O)C(O)(CC(=O)c2ccc(C(C)C)cc2)c2ccccc21 (stereo not given) | inconclusive: 23.3 µM [inhibitor, single point] |
| CCOC(=O)c1cnc2c(ccc3ccccc32)c1Nc1ccc(OC)cc1OC | inconclusive: 3.69 µM [inhibitor, partial curve, poor fit] |
| Cc1ccc(CN2C(=O)c3ccccc3Sc3ccc(C(=O)NCCCN4CCOCC4)cc32)cc1 | inconclusive: 14.7 µM [inhibitor, single point] |
| CCNS(=O)(=O)c1cc(-c2nnc(Nc3cccc(C(F)(F)F)c3)c3ccccc23)ccc1C | inconclusive: 0.165 µM [inhibitor, full curve, poor fit] |
| Cc1ccc(C)c(CN2C(=O)C(O)(c3c(C)[nH]c4ccccc34)c3ccccc32)c1 (stereo not given) | inconclusive: 13.1 µM [inhibitor, partial curve, poor fit] |
| COc1ccc(NC(=O)c2ccc3c(=O)n4nc(Nc5cc(C)ccc5C)sc4nc3c2)cc1 | inconclusive: 20.7 µM [inhibitor, single point] |
| Cc1ccc(NC(=O)CSc2nc(-c3ccco3)cc(C(F)(F)F)n2)cc1C | inconclusive: 14.7 µM [inhibitor, single point] |
| Cc1cccc(N2CCN(C(=O)c3ccc(CS(=O)c4cccc(Cl)c4)o3)CC2)c1C (stereo not given) | inconclusive: 0.131 µM [inhibitor, full curve, poor fit] |
| O=C(NCc1ccc(Cl)cc1)C(=O)NCC(c1cccs1)S(=O)(=O)c1ccc(Cl)cc1 (stereo not given) | inconclusive: 23.3 µM [inhibitor, single point] |
| COc1cc(OC)c(NS(=O)(=O)c2ccc3c(c2)CCCN3C(C)=O)cc1Cl | inconclusive: 18.5 µM [inhibitor, partial curve, poor fit] |
| CCOC(=O)C1CCN(c2cc3c(cc2NC(=O)c2ccccc2Cl)n(C)c(=O)n3C)CC1 | inconclusive: 23.3 µM [inhibitor, single point] |
| COc1ccc(Nc2nc(N)c3cc(OC)c(OC)cc3n2)cc1 | inconclusive: 0.0165 µM [inhibitor, full curve, poor fit] |
| CCOC(=O)N1CCN(Cc2nc3cc(NC(=O)c4ccc(F)cc4)ccc3n2C(C)C)CC1 | inconclusive: 0.0093 µM [inhibitor, full curve, poor fit] |
| Cc1ccc(-c2nc3ccccc3[nH]2)cc1NC(=O)COc1ccccc1[N+](=O)[O-] | inconclusive: 13.1 µM [inhibitor, single point] |
| CCOc1ccc(OCC)c(NS(=O)(=O)c2ccc(-c3coc(C)n3)cc2)c1 | inconclusive: 7.36 µM [inhibitor, partial curve] |
| CCCCN(C)CC(O)Cn1cc(/C=C/C(=O)c2ccc(OCC)cc2)c2ccccc21 (stereo not given) | inconclusive: 23.3 µM [inhibitor, partial curve, poor fit] |
| O=C(CCOc1ccccc1)N(Cc1cccnc1)c1nc2c(F)cccc2s1 | active: 11.7 µM |
| CC1=C(C(=O)Nc2ccc(C)cc2C)C(c2cc(Br)ccc2F)n2ncc(C(=O)Nc3ccc(C)cc3)c2N1 (stereo not given) | active: 9.27 µM |
| O=C(NCc1ccccc1)c1nc(S(=O)(=O)Cc2ccccc2)ncc1Cl | active: 5.85 µM |

| Structure (SMILES) | Potency |
| --- | --- |
| COC(=O)CN1C(=O)C(C)(C)c2cc(S(=O)(=O)Nc3ccc(Br)cc3F)ccc21 | active: 9.27 µM |
| Cc1ccc(S(=O)(=O)Nc2ccc3c(c2)c(C(=O)OC(C)C)c(C)n3S(=O)(=O)c2ccc(C)cc2)cc1 | inconclusive: 11.7 µM [inhibitor, single point] |
| CCOc1ccc(-n2nc3ccc(NC(=O)c4ccc(-c5cccc(Cl)c5)o4)cc3n2)cc1 | inconclusive: 14.7 µM [inhibitor, single point] |
| CCCCS(=O)(=O)c1oc(-c2cccs2)nc1S(=O)(=O)c1ccccc1 | active: 2.07 µM |
| CCCCOCc1cc(CN2CCN(c3cccc(Cl)c3)CC2)c(O)c2ncccc12 | active: 2.61 µM |
| CCc1ccc(NC(=O)Cn2c(=O)n(-c3ccc(OC)cc3)c(=O)c3ccc(C(=O)NCc4ccc(C)cc4)cc32)cc1 | active: 4.65 µM |
| O=C1c2c(O)ccc(O)c2C(=O)c2c(NCCNCCO)ccc(NCCNCCO)c21 | inconclusive: 3.25 µM [inhibitor, full curve, poor fit] |
| COc1ccccc1NC(=O)CSc1nnc2c3ccccc3n(C(C)C)c2n1 | inconclusive: 0.0465 µM [inhibitor, full curve] |
| CCCSc1ncc(Cl)c(C(=O)Nc2ccc(S(=O)(=O)N3CCCCC3C)cc2)n1 (stereo not given) | inconclusive: 5.85 µM [inhibitor, full curve, poor fit] |
| Cc1cc(C)c2c(NC(=O)c3ccccc3Cl)c(C(=O)Nc3ccc(C)c(C)c3)sc2n1 | inconclusive: 4.14 µM [inhibitor, partial curve] |
| COc1ccccc1N1CCN(Cc2cc(COC(C)C)c3cccnc3c2O)CC1 | active: 5.21 µM |
| Cc1cccc(NC(=O)Cn2cc(C(=O)c3ccco3)c3ccccc32)c1C | inconclusive: 2.07 µM [inhibitor, full curve, poor fit] |
| COc1cc(OC)c(NC(=O)Nc2ccc3c(c2)N(C)C(=O)c2ccccc2S3)cc1Cl | inconclusive: 10.4 µM [inhibitor, partial curve, poor fit] |
| CCOC(=O)c1ccc(N2C(=O)c3n[nH]c(-c4ccco4)c3C2c2ccc(OCC)cc2)cc1 (stereo not given) | inconclusive: 26.1 µM [inhibitor, single point] |
| Cc1c(C(=O)OC2CCCCC2)[nH]c2c1C(=O)CC(c1ccccc1Cl)C2 (stereo not given) | inconclusive: 2.33 µM [inhibitor, full curve, poor fit] |
| Cc1cc(C)cc(C(=O)Nc2ccc(-c3nc4ncccc4o3)cc2)c1 | inconclusive: 9.27 µM [inhibitor, partial curve, poor fit] |
| O=C(CCS(=O)(=O)c1ccccc1)N(Cc1cccnc1)c1nc2c(F)cccc2s1 | inconclusive: 18.5 µM [inhibitor, single point] |
| CCOC(=O)c1c(NC(=O)c2ccc(S(=O)(=O)N(CCOC)CCOC)cc2)sc2c1CC(C)(C)NC2(C)C | active: 8.26 µM |
| Cc1ccccc1OCc1ccc(-c2nc(C#N)c(NCCCN(C)C)o2)o1 | inconclusive: 3.29 µM [inhibitor, single point] |
| Cc1c(C2=CCN(S(=O)(=O)c3ccc(Br)cc3)CC2)c2ccccc2n1CC(=O)N1CCCC1 | inconclusive: 1.04 µM [inhibitor, full curve, poor fit] |

Entries from the list above with fluorine (7):

| Structure (SMILES) | Potency |
| --- | --- |
| CCNS(=O)(=O)c1cc(-c2nnc(Nc3cccc(C(F)(F)F)c3)c3ccccc23)ccc1C | inconclusive: 0.165 µM [inhibitor, full curve, poor fit] |
| Cc1ccc(NC(=O)CSc2nc(-c3ccco3)cc(C(F)(F)F)n2)cc1C | inconclusive: 14.7 µM [inhibitor, single point] |
| CCOC(=O)N1CCN(Cc2nc3cc(NC(=O)c4ccc(F)cc4)ccc3n2C(C)C)CC1 | inconclusive: 0.0093 µM [inhibitor, full curve, poor fit] |
| O=C(CCOc1ccccc1)N(Cc1cccnc1)c1nc2c(F)cccc2s1 | active: 11.7 µM |
| CC1=C(C(=O)Nc2ccc(C)cc2C)C(c2cc(Br)ccc2F)n2ncc(C(=O)Nc3ccc(C)cc3)c2N1 (stereo not given) | active: 9.27 µM |
| COC(=O)CN1C(=O)C(C)(C)c2cc(S(=O)(=O)Nc3ccc(Br)cc3F)ccc21 | active: 9.27 µM |
| O=C(CCS(=O)(=O)c1ccccc1)N(Cc1cccnc1)c1nc2c(F)cccc2s1 | inconclusive: 18.5 µM [inhibitor, single point] |
